Measured values as given in patent US8809010B2, “Method for prophylactic treatment of alzheimer's disease using inhibitors of glutaminyl cyclase and glutamate cyclases” (Probiodrug AG, priority 2003, dated 2014).
Not every detail of the peptide structures is certain; ends, links or a residue may be inferred. Square brackets hold non-standard residues; d marks the D form. Peptide text beside a SMILES is read from it. β3hQ = NC(=O)CC[C@H](N)CC(=O)O

The chains behind the UniProt entries cited, without tags or fusion partners. Residues count along the entry.
UniProt Q16769, 29-361: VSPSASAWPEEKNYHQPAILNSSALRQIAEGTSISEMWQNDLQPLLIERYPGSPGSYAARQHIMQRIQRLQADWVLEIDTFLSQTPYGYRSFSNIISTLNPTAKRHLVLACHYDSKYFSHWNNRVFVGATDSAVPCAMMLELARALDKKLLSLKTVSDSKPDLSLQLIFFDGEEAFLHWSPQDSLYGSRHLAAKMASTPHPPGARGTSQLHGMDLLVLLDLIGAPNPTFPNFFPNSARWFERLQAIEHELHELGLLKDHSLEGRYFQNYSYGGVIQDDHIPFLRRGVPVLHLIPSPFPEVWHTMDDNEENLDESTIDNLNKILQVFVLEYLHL

Molecular target: T1, human QC (Homo sapiens, UniProt Q16769)
T1 construct: The cDNA of the mature QC starting with codon 38 was fused in frame with the plasmid encoded 6× histidine tag; 6xHis; made in house; host or cells: Pichia pastoris X33 (pPICZαB, secreted); also E. coli M15 (pQE-31)
Assay: Continuous spectrophotometric QC assay (glutamate dehydrogenase coupled), substrate kinetics;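 note: initial rates read on a microplate reader at 30 °C, with enzyme activity quantified against an ammonia calibration curve under the same assay conditions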
Format: biochemical

Question: With `CC(C)C[C@H](NC(=O)[C@H](CCCNC(=N)N)NC(=O)[C@H](CCCCN)NC(=O)[C@H](Cc1ccccc1)NC(=O)C[C@@H](N)CCC(N)=O)C(=O)N[C@@H](C)C(N)=O` [H-βhomoGln-Phe-Lys-Arg-Leu-Ala-NH2] (H-[β3hQ]FKRLA-NH2) as the molecule, how does the Km read?
Answer: 2500 ± 200 µM

Question: What about the “kcat” value of the same molecule?
Answer: 3.5 ± 0.1 s⁻¹
